{"sequences": {"note": "The chains behind the UniProt entries cited, without tags or fusion partners. Residues count along the entry.", "UniProt P02452, residues 1219-1464": "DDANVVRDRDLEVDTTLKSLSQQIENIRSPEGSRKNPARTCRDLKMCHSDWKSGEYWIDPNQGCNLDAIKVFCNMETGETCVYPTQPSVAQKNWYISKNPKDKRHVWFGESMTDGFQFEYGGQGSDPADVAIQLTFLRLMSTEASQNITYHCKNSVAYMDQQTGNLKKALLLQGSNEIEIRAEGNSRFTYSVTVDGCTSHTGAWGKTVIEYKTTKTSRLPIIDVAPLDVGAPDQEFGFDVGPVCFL"}, "source": "paper PMC6181919", "molecular_target": "wild-type, HA-tagged C-Proα1(I) (C-propeptide domain of human Colα1(I)) (human) (UniProt P02452)", "assay": "condition: only reducing SDS-PAGE (100 mM dithiothreitol); reducing SDS-PAGE immunoblot; conditioned media of transfected HEK293 cells, treated with 100 mM dithiothreitol, boiled in SDS, 12% gel", "note": "Results are given in words; binding and its absence hold for the method and conditions named."}
{"substance": "wild-type, HA-tagged C-Proα1(I) (C-propeptide domain of human Colα1(I)) (from UniProt P02452 1219-1464) (domain or fragment)", "values": [{"measurement": "binding", "value": "no binding"}]}
